Values quoted from earlier work as cited in US11077114B2, “Stabilized formulations of CNS compounds” (Supernus Pharmaceuticals, Inc., priority 2010, dated 2021).
Where a name gives a salt, the structure may show the parent alone. At least one read-out could not be matched to a standard name with certainty.

Conditions: reported in the literature; cited from earlier work

For `CCc1c(C)[nH]c2c1C(=O)C(CN1CCOCC1)CC2` (stereo not shown) [Molindone hydrochloride], the “bioavailability relative to an intramuscular (IM) dose” value is listed as 60%-70%.
